The list shows a part of the results.
These targets were tested with Cn1cc(-c2ccc3nnc(C(F)(F)c4ccc5ncccc5c4)n3n2)cn1 (assay: log2 fold change, soluble protein after heating vs DMSO (PISA); higher = thermal stabilisation; K562 cells, 10 uM, 30 min; active = over 0.2 and 3.5 SD of the protein, either way, in both replicates (recomputed)).
How it was run: (§1)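 K562 cells at 2×10^6 cells/mL were treated for 30 min with 10 μM compound, and aliquots were heated for 3 min over 48°C-58°C before pooling. Extraction used PBS with 0.5% NP-40 at 4°C, and soluble protein was the supernatant after 21,000xg for 90 min, measured by TMTpro 16plex LC-MS/MS with channel sums equalised. Thermal stability values, relative to control samples and from duplicates, are log2 fold changes.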

The chains behind the UniProt entries cited, without tags or fusion partners. Where a name states a change or a piece, a line headed by the entry shows the natural chain unless it says otherwise.
UniProt Q9UMY1: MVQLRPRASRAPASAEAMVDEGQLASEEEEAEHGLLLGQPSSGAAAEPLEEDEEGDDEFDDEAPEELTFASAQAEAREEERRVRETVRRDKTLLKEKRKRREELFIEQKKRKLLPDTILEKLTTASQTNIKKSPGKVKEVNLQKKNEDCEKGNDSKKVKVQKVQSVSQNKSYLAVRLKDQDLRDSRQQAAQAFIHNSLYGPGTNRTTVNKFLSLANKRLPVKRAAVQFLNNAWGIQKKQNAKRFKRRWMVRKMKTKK
UniProt Q9UGY1: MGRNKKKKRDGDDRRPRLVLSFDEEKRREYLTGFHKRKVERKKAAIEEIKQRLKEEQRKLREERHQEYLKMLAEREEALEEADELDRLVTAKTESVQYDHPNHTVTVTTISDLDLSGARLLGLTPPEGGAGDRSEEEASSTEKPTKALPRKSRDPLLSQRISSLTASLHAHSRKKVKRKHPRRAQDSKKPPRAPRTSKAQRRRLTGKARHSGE
UniProt Q9Y5B8, whole entry, looked up: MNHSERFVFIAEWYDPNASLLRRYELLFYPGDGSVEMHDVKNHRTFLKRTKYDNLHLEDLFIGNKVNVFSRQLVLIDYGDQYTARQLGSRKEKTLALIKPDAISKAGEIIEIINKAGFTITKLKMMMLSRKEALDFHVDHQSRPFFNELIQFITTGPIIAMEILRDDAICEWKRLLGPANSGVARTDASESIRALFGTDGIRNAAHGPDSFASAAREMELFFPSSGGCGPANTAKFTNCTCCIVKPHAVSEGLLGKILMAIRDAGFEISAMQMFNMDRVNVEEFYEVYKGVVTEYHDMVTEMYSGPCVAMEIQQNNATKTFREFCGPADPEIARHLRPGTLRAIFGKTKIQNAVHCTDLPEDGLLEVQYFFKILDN
UniProt Q9ULX3: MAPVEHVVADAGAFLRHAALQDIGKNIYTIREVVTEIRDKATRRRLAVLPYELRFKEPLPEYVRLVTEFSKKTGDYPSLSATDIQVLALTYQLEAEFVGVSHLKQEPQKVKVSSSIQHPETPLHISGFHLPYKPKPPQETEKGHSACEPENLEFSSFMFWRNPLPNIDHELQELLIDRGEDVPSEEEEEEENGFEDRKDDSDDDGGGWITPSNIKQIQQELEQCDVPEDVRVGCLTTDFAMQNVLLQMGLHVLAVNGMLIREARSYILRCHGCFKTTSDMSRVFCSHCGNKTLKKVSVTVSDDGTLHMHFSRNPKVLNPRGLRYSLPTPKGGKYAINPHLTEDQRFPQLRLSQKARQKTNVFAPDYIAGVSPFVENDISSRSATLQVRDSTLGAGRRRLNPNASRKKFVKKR
UniProt P49116: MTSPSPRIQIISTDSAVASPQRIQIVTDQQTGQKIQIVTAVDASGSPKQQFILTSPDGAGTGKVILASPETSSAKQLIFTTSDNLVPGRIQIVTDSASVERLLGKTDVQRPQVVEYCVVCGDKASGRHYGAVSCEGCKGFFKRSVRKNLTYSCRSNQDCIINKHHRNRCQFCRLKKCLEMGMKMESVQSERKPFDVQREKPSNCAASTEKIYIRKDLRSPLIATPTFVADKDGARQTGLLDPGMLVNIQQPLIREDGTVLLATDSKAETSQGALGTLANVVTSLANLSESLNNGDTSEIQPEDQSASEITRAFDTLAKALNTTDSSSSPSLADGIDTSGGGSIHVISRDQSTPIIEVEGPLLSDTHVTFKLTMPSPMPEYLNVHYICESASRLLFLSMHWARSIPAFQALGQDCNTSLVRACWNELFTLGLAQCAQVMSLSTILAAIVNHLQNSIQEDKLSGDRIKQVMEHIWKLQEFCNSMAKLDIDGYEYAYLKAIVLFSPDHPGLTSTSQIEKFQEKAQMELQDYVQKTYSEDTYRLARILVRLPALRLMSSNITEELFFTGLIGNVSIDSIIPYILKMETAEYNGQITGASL
UniProt Q9H3P2, whole entry, looked up: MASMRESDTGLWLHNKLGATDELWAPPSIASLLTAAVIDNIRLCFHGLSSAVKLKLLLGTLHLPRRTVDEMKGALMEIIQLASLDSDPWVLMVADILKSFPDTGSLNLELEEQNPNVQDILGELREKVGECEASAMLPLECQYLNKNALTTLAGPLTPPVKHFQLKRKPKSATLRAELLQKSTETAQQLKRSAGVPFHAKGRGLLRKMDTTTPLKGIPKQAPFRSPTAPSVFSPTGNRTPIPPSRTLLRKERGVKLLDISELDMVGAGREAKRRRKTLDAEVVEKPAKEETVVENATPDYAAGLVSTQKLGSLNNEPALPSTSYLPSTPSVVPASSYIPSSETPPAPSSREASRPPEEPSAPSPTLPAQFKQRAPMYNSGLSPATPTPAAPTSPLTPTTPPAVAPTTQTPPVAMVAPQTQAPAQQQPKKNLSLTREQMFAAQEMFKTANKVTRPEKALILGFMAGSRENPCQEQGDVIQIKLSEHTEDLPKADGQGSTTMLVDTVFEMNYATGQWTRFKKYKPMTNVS
UniProt Q9BYT8, whole entry, looked up: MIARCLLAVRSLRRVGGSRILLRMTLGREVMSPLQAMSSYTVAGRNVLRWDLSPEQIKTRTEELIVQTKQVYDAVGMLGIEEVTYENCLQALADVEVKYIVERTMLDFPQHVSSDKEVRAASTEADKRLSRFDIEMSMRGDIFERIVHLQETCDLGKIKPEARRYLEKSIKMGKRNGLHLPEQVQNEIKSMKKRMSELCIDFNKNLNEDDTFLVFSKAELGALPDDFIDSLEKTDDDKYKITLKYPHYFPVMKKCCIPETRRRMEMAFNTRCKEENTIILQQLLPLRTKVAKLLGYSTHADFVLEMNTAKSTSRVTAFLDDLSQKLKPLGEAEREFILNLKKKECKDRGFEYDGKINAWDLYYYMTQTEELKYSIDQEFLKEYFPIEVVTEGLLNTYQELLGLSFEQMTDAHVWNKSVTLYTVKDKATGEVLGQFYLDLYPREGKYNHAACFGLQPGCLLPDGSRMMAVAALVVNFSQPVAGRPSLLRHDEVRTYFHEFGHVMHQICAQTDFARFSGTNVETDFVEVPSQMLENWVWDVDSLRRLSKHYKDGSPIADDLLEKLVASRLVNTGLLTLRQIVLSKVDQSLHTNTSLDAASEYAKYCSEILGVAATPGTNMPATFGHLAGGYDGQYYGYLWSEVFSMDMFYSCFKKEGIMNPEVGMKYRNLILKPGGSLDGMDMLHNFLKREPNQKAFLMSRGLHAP
UniProt Q9NX24: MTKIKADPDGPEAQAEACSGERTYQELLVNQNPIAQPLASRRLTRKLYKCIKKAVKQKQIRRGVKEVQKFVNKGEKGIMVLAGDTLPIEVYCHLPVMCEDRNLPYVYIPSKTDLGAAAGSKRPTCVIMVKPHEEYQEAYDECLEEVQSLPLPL
UniProt Q9BS92: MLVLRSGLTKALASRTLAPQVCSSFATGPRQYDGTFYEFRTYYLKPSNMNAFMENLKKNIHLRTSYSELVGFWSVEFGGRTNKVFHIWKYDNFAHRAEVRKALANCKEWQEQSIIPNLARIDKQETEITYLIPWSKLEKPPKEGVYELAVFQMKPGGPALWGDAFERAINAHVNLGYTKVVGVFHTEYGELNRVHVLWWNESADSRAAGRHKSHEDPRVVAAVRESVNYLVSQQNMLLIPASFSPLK
UniProt Q8WX92, whole entry, looked up: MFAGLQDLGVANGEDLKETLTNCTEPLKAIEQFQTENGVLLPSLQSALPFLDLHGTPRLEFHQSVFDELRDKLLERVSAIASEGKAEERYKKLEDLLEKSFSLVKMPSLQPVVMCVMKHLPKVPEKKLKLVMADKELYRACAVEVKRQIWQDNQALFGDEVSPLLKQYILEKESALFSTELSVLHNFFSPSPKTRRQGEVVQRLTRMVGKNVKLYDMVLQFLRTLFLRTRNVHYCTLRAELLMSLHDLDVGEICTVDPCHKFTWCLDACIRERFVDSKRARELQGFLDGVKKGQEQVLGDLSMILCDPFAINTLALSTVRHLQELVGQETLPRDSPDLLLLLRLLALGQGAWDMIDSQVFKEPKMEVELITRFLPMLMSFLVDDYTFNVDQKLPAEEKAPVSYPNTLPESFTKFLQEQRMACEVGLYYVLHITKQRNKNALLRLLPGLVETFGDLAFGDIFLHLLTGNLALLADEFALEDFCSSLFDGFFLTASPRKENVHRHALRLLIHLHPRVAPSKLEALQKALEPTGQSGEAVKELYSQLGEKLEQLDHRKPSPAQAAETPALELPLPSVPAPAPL
UniProt Q92636: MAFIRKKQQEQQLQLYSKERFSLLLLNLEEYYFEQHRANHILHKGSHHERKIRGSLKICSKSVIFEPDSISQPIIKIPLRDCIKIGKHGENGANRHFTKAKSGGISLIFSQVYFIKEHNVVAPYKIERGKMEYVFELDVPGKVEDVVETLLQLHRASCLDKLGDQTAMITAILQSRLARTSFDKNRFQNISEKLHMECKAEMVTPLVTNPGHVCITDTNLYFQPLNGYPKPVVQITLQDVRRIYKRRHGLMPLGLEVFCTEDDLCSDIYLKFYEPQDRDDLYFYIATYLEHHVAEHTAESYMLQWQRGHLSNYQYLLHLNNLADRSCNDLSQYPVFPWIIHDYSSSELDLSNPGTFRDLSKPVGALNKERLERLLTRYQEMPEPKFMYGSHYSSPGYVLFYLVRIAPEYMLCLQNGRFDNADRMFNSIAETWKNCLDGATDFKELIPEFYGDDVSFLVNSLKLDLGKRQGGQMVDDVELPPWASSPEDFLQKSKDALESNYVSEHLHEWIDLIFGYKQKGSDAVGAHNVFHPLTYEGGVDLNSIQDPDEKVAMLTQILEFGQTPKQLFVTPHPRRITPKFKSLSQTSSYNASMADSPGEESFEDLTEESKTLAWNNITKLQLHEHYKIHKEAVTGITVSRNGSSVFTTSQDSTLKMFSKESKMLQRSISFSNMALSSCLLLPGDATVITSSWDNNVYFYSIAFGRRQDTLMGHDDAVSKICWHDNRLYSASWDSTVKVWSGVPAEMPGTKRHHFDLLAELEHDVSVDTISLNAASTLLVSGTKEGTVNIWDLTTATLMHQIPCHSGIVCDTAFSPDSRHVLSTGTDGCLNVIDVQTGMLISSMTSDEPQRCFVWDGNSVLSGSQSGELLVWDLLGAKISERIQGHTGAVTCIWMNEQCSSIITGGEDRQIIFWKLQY
UniProt Q13423: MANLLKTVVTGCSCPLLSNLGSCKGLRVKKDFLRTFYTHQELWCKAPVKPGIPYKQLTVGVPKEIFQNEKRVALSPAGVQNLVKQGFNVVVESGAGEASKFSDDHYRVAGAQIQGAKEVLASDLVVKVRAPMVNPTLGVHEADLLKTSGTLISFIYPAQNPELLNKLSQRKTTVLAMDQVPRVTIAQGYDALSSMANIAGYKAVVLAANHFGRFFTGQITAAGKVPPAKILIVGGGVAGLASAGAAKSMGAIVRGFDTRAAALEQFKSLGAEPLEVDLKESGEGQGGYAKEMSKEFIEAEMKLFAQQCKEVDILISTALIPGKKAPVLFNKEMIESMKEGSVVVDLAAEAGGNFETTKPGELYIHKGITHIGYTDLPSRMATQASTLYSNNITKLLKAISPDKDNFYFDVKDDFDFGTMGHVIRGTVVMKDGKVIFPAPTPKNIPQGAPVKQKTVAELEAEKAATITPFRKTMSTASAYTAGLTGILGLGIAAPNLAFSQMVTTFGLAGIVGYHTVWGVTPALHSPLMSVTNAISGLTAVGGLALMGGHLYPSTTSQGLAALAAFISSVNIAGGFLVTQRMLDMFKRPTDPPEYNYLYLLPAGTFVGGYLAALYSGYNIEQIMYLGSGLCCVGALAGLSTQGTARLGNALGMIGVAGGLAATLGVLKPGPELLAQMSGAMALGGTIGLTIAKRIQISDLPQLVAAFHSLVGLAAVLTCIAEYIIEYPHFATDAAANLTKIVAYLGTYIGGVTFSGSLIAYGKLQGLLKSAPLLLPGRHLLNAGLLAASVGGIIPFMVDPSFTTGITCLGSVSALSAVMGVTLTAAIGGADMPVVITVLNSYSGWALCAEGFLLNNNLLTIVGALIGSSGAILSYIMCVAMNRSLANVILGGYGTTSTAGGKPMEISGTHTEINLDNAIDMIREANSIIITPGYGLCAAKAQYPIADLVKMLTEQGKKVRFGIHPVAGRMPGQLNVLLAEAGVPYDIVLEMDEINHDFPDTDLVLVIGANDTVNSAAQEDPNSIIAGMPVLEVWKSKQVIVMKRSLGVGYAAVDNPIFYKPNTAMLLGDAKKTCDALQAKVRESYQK
UniProt Q92686, whole entry, looked up: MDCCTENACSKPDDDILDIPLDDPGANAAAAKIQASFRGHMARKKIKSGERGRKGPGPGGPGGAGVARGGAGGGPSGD
UniProt O60361, whole entry, looked up: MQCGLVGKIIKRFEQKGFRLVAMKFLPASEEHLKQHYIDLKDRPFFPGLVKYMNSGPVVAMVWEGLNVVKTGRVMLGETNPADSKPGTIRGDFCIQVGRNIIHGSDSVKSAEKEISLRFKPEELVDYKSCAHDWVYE
UniProt Q8TDX7: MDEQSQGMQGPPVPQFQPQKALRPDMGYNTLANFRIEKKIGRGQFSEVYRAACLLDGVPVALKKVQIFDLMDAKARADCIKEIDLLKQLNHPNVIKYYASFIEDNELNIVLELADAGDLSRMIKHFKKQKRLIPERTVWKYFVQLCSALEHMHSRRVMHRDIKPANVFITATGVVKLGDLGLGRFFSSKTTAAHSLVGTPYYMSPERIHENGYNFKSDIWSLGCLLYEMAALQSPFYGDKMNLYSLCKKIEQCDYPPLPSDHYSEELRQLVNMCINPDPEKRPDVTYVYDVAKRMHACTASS

Q: For NOL7 (UniProt Q9UMY1), which log2 fold change is on record?
A: inactive: -0.148

Q: Which log2 fold change does the source give for NOL12 (UniProt Q9UGY1) here?
A: inactive: -0.147

Q: For NME7 (UniProt Q9Y5B8), which log2 fold change is on record?
A: inactive: 0.009

Q: Which log2 fold change does the source give for NOB1 (UniProt Q9ULX3) here?
A: inactive: 0.059

Q: NR2C2 isoform 2 (UniProt P49116) was tested. Which log2 fold change did it give?
A: inactive: -0.038

Q: With NELFA (UniProt Q9H3P2) as the target, how does the log2 fold change read?
A: inactive: 0.018

Each target was assayed with Cn1cncc1[C@@](N)(c1ccc(Cl)cc1)c1ccc2c(c1)c(-c1cccc(Cl)c1)cc(=O)n2C [tipifarnib] in the same assay as above.
How it was run: as §1

Q: With NFATC4 isoform 2 (UniProt Q14934) as the target, how does the log2 fold change read?
A: inactive: -0.175

Q: For NFAT5 isoform 5 (UniProt O94916), which log2 fold change is on record?
A: inactive: 0.112

Q: NGLY1 (UniProt Q96IV0) was tested. Which log2 fold change did it give?
A: inactive: -0.067

Q: With NSF (UniProt P46459) as the target, how does the log2 fold change read?
A: inactive: -0.033

Q: How did the log2 fold change turn out when NLN (UniProt Q9BYT8) was run?
A: inactive: 0.002

Q: How did the log2 fold change turn out when NHP2 (UniProt Q9NX24) was run?
A: inactive: 0.039

Q: With NIPSNAP3B (UniProt Q9BS92) as the target, how does the log2 fold change read?
A: inactive: -0.018

Q: For NELFB isoform 2 (UniProt Q8WX92), which log2 fold change is on record?
A: inactive: -0.081

Q: For NFXL1 (UniProt Q6ZNB6), which log2 fold change is on record?
A: inactive: -0.004

Q: With NSMAF (UniProt Q92636) as the target, how does the log2 fold change read?
A: inactive: -0.015

Q: NNT (UniProt Q13423) was tested. Which log2 fold change did it give?
A: inactive: -0.034

Q: Which log2 fold change does the source give for NPL (UniProt Q9BXD5) here?
A: inactive: -0.044

Q: With NOP56 (UniProt O00567) as the target, how does the log2 fold change read?
A: inactive: 0.201

Q: Which log2 fold change does the source give for NGRN (UniProt Q9NPE2) here?
A: inactive: 0.013

Q: For NNMT (UniProt P40261), which log2 fold change is on record?
A: inactive: -0.002

Q: NFATC3 (UniProt Q12968) was tested. Which log2 fold change did it give?
A: inactive: 0.01

Q: For NFKB1 isoform 2 (UniProt P19838), which log2 fold change is on record?
A: inactive: 0.049

Q: How did the log2 fold change turn out when NRGN (UniProt Q92686) was run?
A: inactive: -0.055

Q: With NELFCD (UniProt Q8IXH7) as the target, how does the log2 fold change read?
A: inactive: 0.035

Q: NPLOC4 isoform 2 (UniProt Q8TAT6) was tested. Which log2 fold change did it give?
A: inactive: 0.004

Q: How did the log2 fold change turn out when NME2P1 (UniProt O60361) was run?
A: inactive: -0.055

Q: NRAS (UniProt P01111) was tested. Which log2 fold change did it give?
A: inactive: 0.001

Q: Which log2 fold change does the source give for NEK7 (UniProt Q8TDX7) here?
A: inactive: -0.028

Q: With NEMF (UniProt O60524) as the target, how does the log2 fold change read?
A: inactive: 0.022

Q: How did the log2 fold change turn out when NOD1 (UniProt Q9Y239) was run?
A: inactive: 0.192

Q: Which log2 fold change does the source give for NOC2L (UniProt Q9Y3T9) here?
A: inactive: 0.107

Q: NMI (UniProt Q13287) was tested. Which log2 fold change did it give?
A: inactive: -0.023

Q: For NOA1 (UniProt Q8NC60), which log2 fold change is on record?
A: inactive: 0.071

Q: Which log2 fold change does the source give for NOP2 isoform 4 (UniProt P46087) here?
A: inactive: 0.214

Q: How did the log2 fold change turn out when NOL7 (UniProt Q9UMY1) was run?
A: inactive: 0.154

Q: Which log2 fold change does the source give for NOL12 (UniProt Q9UGY1) here?
A: inactive: 0.136

Q: NME7 (UniProt Q9Y5B8) was tested. Which log2 fold change did it give?
A: inactive: -0.001

Q: How did the log2 fold change turn out when NRM (UniProt Q8IXM6) was run?
A: inactive: 0

Q: Which log2 fold change does the source give for NOB1 (UniProt Q9ULX3) here?
A: inactive: -0.106

Q: With NR2C2 isoform 2 (UniProt P49116) as the target, how does the log2 fold change read?
A: inactive: -0.184

Q: NELFA (UniProt Q9H3P2) was tested. Which log2 fold change did it give?
A: inactive: -0.141

Each target was assayed with FC(F)(F)c1ccc(/C=C/c2nc(COc3ccc(CCCCn4ccnn4)cc3)co2)cc1 [mubritinib] in the same assay as above.
How it was run: as §1

Q: For NFATC4 isoform 2 (UniProt Q14934), which log2 fold change is on record?
A: inactive: -0.11

Q: For NFAT5 isoform 5 (UniProt O94916), which log2 fold change is on record?
A: inactive: 0.026

Q: Which log2 fold change does the source give for NGLY1 (UniProt Q96IV0) here?
A: inactive: -0.062

Q: How did the log2 fold change turn out when NSF (UniProt P46459) was run?
A: inactive: -0.013

Q: Which log2 fold change does the source give for NLN (UniProt Q9BYT8) here?
A: inactive: 0.028

Q: NHP2 (UniProt Q9NX24) was tested. Which log2 fold change did it give?
A: inactive: -0.007

Q: NIPSNAP3B (UniProt Q9BS92) was tested. Which log2 fold change did it give?
A: inactive: 0.083

Q: With NELFB isoform 2 (UniProt Q8WX92) as the target, how does the log2 fold change read?
A: inactive: 0.03

Q: How did the log2 fold change turn out when NFXL1 (UniProt Q6ZNB6) was run?
A: inactive: -0.002

Q: How did the log2 fold change turn out when NSMAF (UniProt Q92636) was run?
A: inactive: 0.055

Q: Which log2 fold change does the source give for NNT (UniProt Q13423) here?
A: inactive: 0.021

Q: With NPL (UniProt Q9BXD5) as the target, how does the log2 fold change read?
A: inactive: 0.145

Q: NOP56 (UniProt O00567) was tested. Which log2 fold change did it give?
A: inactive: -0.164

Q: NGRN (UniProt Q9NPE2) was tested. Which log2 fold change did it give?
A: inactive: -0.046

Q: Which log2 fold change does the source give for NNMT (UniProt P40261) here?
A: inactive: 0.094

Q: With NFATC3 (UniProt Q12968) as the target, how does the log2 fold change read?
A: inactive: -0.01

Q: NFKB1 isoform 2 (UniProt P19838) was tested. Which log2 fold change did it give?
A: inactive: -0.062

Q: Which log2 fold change does the source give for NPLOC4 isoform 2 (UniProt Q8TAT6) here?
A: inactive: 0.051

Q: NME2P1 (UniProt O60361) was tested. Which log2 fold change did it give?
A: inactive: 0.073

Q: Which log2 fold change does the source give for NSD1 (UniProt Q96L73) here?
A: inactive: -0.013

Q: For NRAS (UniProt P01111), which log2 fold change is on record?
A: inactive: 0.028

Q: NOC3L (UniProt Q8WTT2) was tested. Which log2 fold change did it give?
A: inactive: 0.128

Q: Which log2 fold change does the source give for NEK7 (UniProt Q8TDX7) here?
A: inactive: -0.079

Q: How did the log2 fold change turn out when NEMF (UniProt O60524) was run?
A: inactive: -0.079

Q: For NOC2L (UniProt Q9Y3T9), which log2 fold change is on record?
A: inactive: -0.015

Q: For NMI (UniProt Q13287), which log2 fold change is on record?
A: inactive: 0.05

Q: How did the log2 fold change turn out when NOA1 (UniProt Q8NC60) was run?
A: inactive: -0.13

Q: With NOP2 isoform 4 (UniProt P46087) as the target, how does the log2 fold change read?
A: inactive: -0.304

Q: NOL7 (UniProt Q9UMY1) was tested. Which log2 fold change did it give?
A: inactive: -0.156

Q: With NOL12 (UniProt Q9UGY1) as the target, how does the log2 fold change read?
A: inactive: -0.154

Q: With NME7 (UniProt Q9Y5B8) as the target, how does the log2 fold change read?
A: inactive: -0.279

Q: NRM (UniProt Q8IXM6) was tested. Which log2 fold change did it give?
A: inactive: -0.02

Q: Which log2 fold change does the source give for NOB1 (UniProt Q9ULX3) here?
A: inactive: -0.043

Q: For NR2C2 isoform 2 (UniProt P49116), which log2 fold change is on record?
A: inactive: 0.026

Q: For NELFA (UniProt Q9H3P2), which log2 fold change is on record?
A: inactive: -0.034

Source: the supplement of paper PMC10849652
